Laboratory results reported in the supplement of paper PMC11006884.
The targets with a hit were mostly taken out for another list; the other results follow. The data scatter; read single values as rough. Only a part is listed here, and it is no random draw.

Chains of the proteins cited; added tags and fusions are not shown. Lines headed by an entry give the natural chain unless they say otherwise; changes in a name come on top.
UniProt O00264: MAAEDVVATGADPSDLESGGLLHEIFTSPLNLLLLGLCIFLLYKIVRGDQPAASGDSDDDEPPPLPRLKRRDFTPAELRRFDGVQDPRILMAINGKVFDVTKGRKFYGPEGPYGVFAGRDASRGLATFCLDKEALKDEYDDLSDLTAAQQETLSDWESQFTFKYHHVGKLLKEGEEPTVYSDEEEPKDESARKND
UniProt O43175: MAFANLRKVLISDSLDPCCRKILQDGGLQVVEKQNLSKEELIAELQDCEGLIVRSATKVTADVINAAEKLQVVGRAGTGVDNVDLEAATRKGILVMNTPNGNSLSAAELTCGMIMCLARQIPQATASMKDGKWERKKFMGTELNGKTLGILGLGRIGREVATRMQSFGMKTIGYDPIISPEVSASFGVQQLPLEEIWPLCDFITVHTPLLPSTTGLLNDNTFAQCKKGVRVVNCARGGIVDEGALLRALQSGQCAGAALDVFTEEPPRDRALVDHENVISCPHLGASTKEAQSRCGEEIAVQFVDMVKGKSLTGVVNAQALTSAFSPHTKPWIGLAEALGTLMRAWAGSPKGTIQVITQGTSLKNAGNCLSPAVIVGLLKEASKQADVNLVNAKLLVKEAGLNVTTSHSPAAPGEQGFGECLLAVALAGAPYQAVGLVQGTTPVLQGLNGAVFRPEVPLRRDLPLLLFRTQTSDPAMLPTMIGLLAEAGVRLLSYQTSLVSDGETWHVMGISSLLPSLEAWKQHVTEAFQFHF
UniProt A9UHW6: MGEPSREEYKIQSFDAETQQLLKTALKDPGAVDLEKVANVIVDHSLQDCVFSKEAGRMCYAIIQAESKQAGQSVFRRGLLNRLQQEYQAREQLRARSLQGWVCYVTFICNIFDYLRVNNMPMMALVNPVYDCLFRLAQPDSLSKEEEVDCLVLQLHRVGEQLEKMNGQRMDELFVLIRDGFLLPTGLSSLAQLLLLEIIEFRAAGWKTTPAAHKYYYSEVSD
UniProt O14880: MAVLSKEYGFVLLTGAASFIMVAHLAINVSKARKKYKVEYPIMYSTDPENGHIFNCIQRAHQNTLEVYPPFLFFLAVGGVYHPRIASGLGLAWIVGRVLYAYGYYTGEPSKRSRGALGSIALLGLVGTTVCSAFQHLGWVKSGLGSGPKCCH
UniProt O00541, whole entry, looked up: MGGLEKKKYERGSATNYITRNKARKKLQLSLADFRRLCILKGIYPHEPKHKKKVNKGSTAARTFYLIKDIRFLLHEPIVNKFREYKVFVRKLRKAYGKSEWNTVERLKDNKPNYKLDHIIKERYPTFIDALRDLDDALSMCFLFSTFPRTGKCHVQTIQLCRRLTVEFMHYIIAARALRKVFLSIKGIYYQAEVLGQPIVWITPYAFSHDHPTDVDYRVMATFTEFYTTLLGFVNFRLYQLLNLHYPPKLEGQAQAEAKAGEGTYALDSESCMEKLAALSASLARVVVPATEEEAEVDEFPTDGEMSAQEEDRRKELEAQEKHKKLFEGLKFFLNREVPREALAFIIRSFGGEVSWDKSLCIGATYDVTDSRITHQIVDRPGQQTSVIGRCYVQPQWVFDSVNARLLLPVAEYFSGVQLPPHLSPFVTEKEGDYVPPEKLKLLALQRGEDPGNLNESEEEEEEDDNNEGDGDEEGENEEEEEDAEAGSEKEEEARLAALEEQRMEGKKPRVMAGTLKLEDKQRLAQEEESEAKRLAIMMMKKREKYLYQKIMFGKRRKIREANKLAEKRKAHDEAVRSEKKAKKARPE
UniProt O00273: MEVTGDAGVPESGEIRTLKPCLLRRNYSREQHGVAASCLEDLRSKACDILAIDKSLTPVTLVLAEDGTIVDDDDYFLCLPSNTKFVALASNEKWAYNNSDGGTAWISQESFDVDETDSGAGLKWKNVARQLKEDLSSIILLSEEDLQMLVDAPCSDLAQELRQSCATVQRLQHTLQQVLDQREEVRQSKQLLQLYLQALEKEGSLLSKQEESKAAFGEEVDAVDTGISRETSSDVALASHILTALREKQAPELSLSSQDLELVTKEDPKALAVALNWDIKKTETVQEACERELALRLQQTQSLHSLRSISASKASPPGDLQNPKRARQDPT
UniProt O15371, whole entry, looked up: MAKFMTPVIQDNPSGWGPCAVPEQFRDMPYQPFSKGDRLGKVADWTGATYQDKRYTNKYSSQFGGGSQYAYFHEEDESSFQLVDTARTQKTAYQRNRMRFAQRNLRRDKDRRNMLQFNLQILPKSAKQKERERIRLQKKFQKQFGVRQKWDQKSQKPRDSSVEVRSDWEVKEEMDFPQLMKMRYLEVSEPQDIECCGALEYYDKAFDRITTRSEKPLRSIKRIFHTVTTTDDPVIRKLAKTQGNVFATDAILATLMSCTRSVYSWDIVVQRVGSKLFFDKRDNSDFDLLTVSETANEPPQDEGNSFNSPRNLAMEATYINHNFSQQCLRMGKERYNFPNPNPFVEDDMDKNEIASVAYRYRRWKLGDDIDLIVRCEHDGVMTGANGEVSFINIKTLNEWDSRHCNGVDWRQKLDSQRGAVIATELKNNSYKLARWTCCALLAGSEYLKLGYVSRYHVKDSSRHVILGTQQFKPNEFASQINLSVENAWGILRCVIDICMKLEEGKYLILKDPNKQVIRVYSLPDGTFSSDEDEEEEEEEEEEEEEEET
UniProt O15047, whole entry: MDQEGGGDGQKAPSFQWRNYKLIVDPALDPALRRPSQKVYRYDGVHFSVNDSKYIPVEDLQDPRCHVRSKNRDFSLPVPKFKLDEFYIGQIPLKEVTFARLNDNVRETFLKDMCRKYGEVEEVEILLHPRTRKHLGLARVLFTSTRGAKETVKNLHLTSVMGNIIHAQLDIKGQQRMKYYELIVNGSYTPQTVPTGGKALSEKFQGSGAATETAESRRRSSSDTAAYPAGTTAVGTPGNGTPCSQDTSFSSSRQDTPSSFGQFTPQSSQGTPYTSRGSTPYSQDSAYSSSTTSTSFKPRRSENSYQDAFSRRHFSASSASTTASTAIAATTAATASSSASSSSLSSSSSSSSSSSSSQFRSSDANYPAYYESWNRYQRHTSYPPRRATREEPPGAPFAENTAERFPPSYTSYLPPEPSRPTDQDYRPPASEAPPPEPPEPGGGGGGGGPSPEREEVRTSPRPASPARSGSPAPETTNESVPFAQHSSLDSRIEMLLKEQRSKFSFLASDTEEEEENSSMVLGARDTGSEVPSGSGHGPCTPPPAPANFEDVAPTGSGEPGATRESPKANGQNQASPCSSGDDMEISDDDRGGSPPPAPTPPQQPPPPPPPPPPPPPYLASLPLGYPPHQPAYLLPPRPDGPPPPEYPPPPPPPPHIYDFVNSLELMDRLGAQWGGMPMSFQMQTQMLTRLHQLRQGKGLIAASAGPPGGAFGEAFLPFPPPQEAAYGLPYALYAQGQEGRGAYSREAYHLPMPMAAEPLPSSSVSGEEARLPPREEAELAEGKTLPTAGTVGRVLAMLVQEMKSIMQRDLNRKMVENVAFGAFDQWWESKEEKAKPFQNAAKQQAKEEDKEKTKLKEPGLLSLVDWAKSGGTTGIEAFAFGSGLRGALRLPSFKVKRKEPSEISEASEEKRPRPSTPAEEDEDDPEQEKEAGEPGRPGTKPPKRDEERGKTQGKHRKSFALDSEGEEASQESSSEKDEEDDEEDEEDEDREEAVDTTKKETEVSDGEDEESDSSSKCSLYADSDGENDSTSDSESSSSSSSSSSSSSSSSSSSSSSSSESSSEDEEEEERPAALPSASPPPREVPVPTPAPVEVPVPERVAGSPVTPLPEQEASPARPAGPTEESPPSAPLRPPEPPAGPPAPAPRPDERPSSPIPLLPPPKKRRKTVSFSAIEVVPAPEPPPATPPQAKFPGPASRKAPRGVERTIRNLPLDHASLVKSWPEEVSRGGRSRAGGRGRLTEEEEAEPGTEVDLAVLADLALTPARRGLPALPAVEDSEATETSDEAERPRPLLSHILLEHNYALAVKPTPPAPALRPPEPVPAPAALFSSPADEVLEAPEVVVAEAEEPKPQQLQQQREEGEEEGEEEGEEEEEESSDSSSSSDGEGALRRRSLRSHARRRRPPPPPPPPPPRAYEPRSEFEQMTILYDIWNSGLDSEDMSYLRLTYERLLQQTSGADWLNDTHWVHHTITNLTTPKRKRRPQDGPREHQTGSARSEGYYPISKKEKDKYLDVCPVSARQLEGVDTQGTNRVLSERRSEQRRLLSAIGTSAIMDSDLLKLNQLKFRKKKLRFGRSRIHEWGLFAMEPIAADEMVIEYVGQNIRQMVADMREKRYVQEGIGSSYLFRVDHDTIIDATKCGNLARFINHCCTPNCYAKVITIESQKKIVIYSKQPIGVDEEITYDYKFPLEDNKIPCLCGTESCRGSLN
UniProt O15355: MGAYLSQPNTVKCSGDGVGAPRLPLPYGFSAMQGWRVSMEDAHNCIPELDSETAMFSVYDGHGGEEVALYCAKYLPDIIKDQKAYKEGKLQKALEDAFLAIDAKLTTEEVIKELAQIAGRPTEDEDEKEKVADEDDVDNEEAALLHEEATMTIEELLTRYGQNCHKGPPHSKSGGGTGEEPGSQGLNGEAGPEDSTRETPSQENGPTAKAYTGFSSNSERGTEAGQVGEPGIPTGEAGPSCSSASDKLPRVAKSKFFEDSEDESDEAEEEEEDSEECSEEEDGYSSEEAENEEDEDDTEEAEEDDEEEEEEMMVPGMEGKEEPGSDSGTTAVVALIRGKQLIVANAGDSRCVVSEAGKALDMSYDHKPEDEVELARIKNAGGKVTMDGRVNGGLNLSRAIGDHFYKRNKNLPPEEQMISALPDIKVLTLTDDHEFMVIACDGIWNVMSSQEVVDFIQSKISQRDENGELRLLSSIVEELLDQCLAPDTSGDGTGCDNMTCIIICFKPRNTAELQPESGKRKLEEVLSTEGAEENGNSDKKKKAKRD
UniProt O14745: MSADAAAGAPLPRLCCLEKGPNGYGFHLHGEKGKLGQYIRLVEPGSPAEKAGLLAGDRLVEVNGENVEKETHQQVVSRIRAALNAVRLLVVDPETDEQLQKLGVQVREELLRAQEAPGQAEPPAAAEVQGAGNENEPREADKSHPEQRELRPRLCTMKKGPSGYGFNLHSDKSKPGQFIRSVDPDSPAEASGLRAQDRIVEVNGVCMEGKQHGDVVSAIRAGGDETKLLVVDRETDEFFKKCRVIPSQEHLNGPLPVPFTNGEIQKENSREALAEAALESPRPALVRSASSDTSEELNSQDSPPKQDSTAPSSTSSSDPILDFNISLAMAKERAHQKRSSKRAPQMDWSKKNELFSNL
UniProt O14654: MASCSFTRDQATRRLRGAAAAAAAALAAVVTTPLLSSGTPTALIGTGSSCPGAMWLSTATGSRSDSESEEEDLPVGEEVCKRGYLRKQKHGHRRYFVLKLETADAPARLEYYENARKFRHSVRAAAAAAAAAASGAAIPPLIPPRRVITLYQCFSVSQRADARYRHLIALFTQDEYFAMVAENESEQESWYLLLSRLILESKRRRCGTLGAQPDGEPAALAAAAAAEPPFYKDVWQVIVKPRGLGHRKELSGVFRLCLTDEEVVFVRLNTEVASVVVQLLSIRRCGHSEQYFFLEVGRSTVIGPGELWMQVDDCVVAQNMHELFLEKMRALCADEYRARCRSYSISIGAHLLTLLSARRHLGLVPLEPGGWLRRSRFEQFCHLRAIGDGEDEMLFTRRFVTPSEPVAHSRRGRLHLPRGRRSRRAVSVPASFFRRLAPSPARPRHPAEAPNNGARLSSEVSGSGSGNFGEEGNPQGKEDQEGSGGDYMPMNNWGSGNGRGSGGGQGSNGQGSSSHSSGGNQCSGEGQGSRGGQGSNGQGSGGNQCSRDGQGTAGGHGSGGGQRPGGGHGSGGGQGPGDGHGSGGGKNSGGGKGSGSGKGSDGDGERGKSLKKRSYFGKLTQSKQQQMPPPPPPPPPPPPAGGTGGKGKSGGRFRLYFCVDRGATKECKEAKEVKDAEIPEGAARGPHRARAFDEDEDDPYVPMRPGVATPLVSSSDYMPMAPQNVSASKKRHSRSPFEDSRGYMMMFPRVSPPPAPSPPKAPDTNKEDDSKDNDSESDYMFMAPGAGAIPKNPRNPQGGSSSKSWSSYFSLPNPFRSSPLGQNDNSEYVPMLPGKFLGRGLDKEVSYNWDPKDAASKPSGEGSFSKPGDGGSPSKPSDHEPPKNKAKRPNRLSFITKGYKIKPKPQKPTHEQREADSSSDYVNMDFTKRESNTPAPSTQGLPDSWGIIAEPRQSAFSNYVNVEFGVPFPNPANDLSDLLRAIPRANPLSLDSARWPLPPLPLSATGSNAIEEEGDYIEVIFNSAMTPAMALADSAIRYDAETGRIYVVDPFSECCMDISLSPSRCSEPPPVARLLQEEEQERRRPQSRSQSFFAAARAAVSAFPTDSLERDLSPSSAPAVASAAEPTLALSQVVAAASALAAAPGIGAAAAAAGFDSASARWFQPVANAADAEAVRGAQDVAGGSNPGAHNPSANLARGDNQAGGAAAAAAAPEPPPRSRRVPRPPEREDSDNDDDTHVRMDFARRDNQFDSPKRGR

What follows are targets tested with COC(=O)/C=C/c1ccccc1 [methyl cinnamate] (assay: log2 ratio of iodoacetamide-alkyne labeling of the cysteine site, DMSO over compound (competition); higher = stronger covalent engagement of the cysteine by the compound, active = 1 or more). Conditions: 500 µM; treatment time 1 h; system: HEK293T cell lysate.
Method in brief: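 The log2 competition ratio per cysteine is defined as mean reporter intensity in control channels over mean reporter intensity in compound channels. Lysate from HEK293T cells (2 mg/mL) received electrophile (500 µM) or vehicle for 1 h at ambient temperature, followed by iodoacetamide alkyne for 1 h. Samples were clicked to sCIP-TMT reagents, pooled, trypsin-digested overnight at 37 °C, streptavidin-enriched, acid-eluted and run on Orbitrap Eclipse LC-MS/MS with FAIMS, with quantification in FragPipe. Three replicates with duplicate channels were used, and any cysteine quantified in only one replicate was excluded.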

| Target | log2 ratio of iodoacetamide-alkyne labeling |
| --- | --- |
| TCERG1 C1062 (UniProt O14776) | inactive: 0.0362 |
| HAT1 C376 (UniProt O14929) | inactive: 0.0113 |
| PGRMC1 C129 (UniProt O00264) | inactive: 0.27 |
| PHGDH C295 (UniProt O43175) | inactive: -0.0321 |
| O15320_C147 (UniProt Q96PC5+O15320) | inactive: -0.211 |
| PRPF4 C441 (UniProt O43172) | inactive: 0.0829 |
| AP3B1 C507 (UniProt O00203) | inactive: 0.121 |
| STX16 C150 (UniProt O14662) | inactive: 0.133 |
| SPTBN2 C607 (UniProt O15020) | inactive: 0.259 |
| UniProt O15042_C624 | inactive: 0.259 |
| PFAS C871 (UniProt O15067) | inactive: -0.22 |
| UniProt O14733_C131 | inactive: -0.15 |
| CLIC1 C223 (UniProt O00299) | inactive: -0.0438 |
| PDLIM1 C263 (UniProt O00151) | inactive: -0.0195 |
| PPP6C C192 (UniProt O00743) | inactive: -0.0767 |
| MIF4GD C49 (UniProt A9UHW6) | inactive: 0.104 |
| SIVA1 C62 (UniProt O15304) | inactive: -0.0611 |
| MGST3 C131 (UniProt O14880) | inactive: -0.168 |
| PES1 C361 (UniProt O00541) | inactive: 0.163 |

Single values from the results shown:
log2 ratio of iodoacetamide-alkyne labeling with PPP6C C192 (UniProt O00743) reads inactive: -0.0767
log2 ratio of iodoacetamide-alkyne labeling with MIF4GD C49 (UniProt A9UHW6) reads inactive: 0.104

Following part:

| Target | log2 ratio of iodoacetamide-alkyne labeling |
| --- | --- |
| MYO1C C161 (UniProt O00159) | inactive: -0.0131 |
| EEF2K C482 (UniProt O00418) | inactive: 0.372 |
| ZZEF1 C2037 (UniProt O43149) | inactive: 0.12 |
| APAF1 C258 (UniProt O14727) | inactive: -0.0214 |
| HGS C166 (UniProt O14964) | inactive: 0.0557 |
| UniProt A6NJ78_C172 | inactive: 0.146 |
| PRPF4 C237 (UniProt O43172) | inactive: 0.253 |
| DFFA C165 (UniProt O00273) | inactive: 0.165 |
| EIF3D C258 (UniProt O15371) | inactive: -0.112 |
| NVL C550 (UniProt O15381) | inactive: -0.749 |
| NKRF C453 (UniProt O15226) | inactive: 0.201 |
| SETD1A C243 (UniProt O15047) | inactive: 0.182 |
| PPM1G C241 (UniProt O15355) | inactive: 0.229 |
| UniProt O15042_C65 | inactive: 0.111 |
| SLC9A3R1 C16 (UniProt O14745) | inactive: 0.0571 |
| PRMT5 C42 (UniProt O14744) | inactive: 0.0154 |
| CD3EAP C107 (UniProt O15446) | inactive: 0.22 |
| IRS4 C1065 (UniProt O14654) | inactive: 0.264 |
| MPHOSPH10 C27 (UniProt O00566) | inactive: 0.145 |
